Measured values published in patent US8614207B2, “Inhibitors of hepatitis C virus” (Presidio Pharmaceuticals, Inc., priority 2010, dated 2013).
Some entries share one result that the patent states for a list of compounds. At least one compound was matched to its structure with a doubt left.

System: HCV1b replication (bicistronic genotype 1b replicon in Huh 7 cells)
Experiment: HCV replicon assay, 1b_Huh-Luc/Neo-ET cell line, luciferase readout
Type: cell-based, HCV genotype 1b
Conditions: Group 1 / Group 2, read-out: EC50, concentration effective to produce a half-maximal inhibition of HCV1b replication
Protocol: Biological activity of the compounds of the invention was determined using an HCV replicon assay. The 1b_Huh-Luc/Neo-ET cell line persistently expressing a bicistronic genotype 1b replicon in Huh 7 cells was obtained from ReBLikon GMBH. This cell line was used to test compound inhibition using luciferase enzyme activity readout as a measurement of compound inhibition of replicon levels.
On Day 1 (the day after plating), each compound is added in triplicate to the cells. Plates incubated for 72 […] prior to running the luciferase assay. Enzyme activity was measured using a Bright-Glo Kit (cat. number E2620) manufactured by Promega Corporation. The following equation was used to generate a percent control value for each compound. % Control=(Average Compound Value/Average Control)*100
The EC50 value was determined using GraphPad Prism and the following equation: Y=Bottom+(Top−Bottom)/(1+10^((Log IC50−X)*HillSlope))
EC50 values of compounds are repeated several times in the replicon assay.

Row | Compound | EC50 [nM]
1 | CS(=O)(=O)N1CCCCc2cc3c(-c4ncc[nH]4)c(-c4ccc(F)cc4)oc3cc21 [Compound B67] | ≤ 10
2 | CNC(=O)c1c(-c2ccc(F)cc2)oc2cc3c(cc12)CC(C)CCN3S(C)(=O)=O (stereo not drawn) [Compound B92] | ≤ 10
3 | CC1CCCN(S(C)(=O)=O)c2cc3oc(-c4ccc(Oc5ccc(F)cc5)cc4)c(-c4ncc[nH]4)c3cc21 (stereo not drawn) [Compound B198] | ≤ 10
4 | CNC(=O)c1c(-c2ccc(F)cc2)oc2cc3c(cc12)[C@H](C)NC(=O)CN3S(C)(=O)=O (single isomer, unassigned) [Compound B208] | ≤ 10
5 | CNC(=O)c1c(-c2ccc(F)cc2)oc2cc3c(cc12)C(C)CCCN3S(C)(=O)=O (stereo not drawn) [Compound B121] | ≤ 10
6 | CNC(=O)c1c(-c2ccc(F)cc2)oc2cc3c(cc12)C(C)N(CCO)CCN3S(C)(=O)=O (stereo not drawn) [Compound B145] | ≤ 10
7 | CNC(=O)c1c(-c2ccc(F)cc2)oc2cc3c(cc12)[C@@H]1C[C@@H]1CCN3S(C)(=O)=O (single isomer, unassigned) [Compound B132] | ≤ 10
8 | CNC(=O)c1c(-c2ccc(Oc3ccc(F)cc3)cc2)oc2cc3c(cc12)C(C)n1nncc1CN3S(C)(=O)=O (stereo not drawn) [Compound B158] | ≤ 10
9 | CNC(=O)c1c(-c2ccc(Oc3ccc(F)cc3)cc2)oc2cc3c(cc12)[C@H](C)OC1(CC1)CN3S(C)(=O)=O (single isomer, unassigned) [Compound B187] | ≤ 10
10 | CNC(=O)c1c(-c2ccc(Oc3ccc(F)cc3)cc2)oc2cc3c(cc12)[C@H](C)CCCN3S(C)(=O)=O (single isomer, unassigned) [Compound B85] | ≤ 10
11 | CNC(=O)c1c(-c2ccc(F)cc2)oc2cc3c(cc12)C(C)n1nncc1CN3S(C)(=O)=O (stereo not drawn) [Compound B138] | ≤ 10
12 | CNC(=O)c1c(-c2ccc(F)cc2)oc2cc3c(cc12)[C@H](C)N1CCC[C@@H]1CN3S(C)(=O)=O (single isomer, unassigned) [Compound B131] | ≤ 10
13 | CS(=O)(=O)N1CCCCCc2cc3c(-c4ncc[nH]4)c(-c4ccc(F)cc4)oc3cc21 [Compound B130] | ≤ 10
14 | CNC(=O)c1c(-c2ccc(F)cc2F)oc2cc3c(cc12)C(C)CCCN3S(C)(=O)=O (stereo not drawn) [Compound B35] | ≤ 10
15 | CNC(=O)c1c(-c2ccc(F)cc2)oc2cc3c(cc12)CCCCCN3S(C)(=O)=O [Compound B20] | ≤ 10
16 | CNC(=O)c1c(-c2ccc(F)cc2)oc2cc3c(cc12)C(C)CCCCN3S(C)(=O)=O (stereo not drawn) [Compound B94] | ≤ 10
17 | CNC(=O)c1c(-c2ccc(F)cc2)oc2cc3c(cc12)C(C)N(CC(F)F)CCN3S(C)(=O)=O (stereo not drawn) [Compound B139] | ≤ 10
18 | CC1c2cc3c(-c4ncc[nH]4)c(-c4ccc(F)cc4)oc3cc2N(S(C)(=O)=O)CCN1C (stereo not drawn) [Compound B171] | ≤ 10
19 | CNC(=O)c1c(-c2ccc(F)cc2)oc2cc3c(cc12)[C@H](C)n1nncc1CN3S(C)(=O)=O (single isomer, unassigned) [Compound B169] | ≤ 10
20 | CNC(=O)c1c(-c2ccc(Oc3ccc(F)cc3)cc2)oc2cc3c(cc12)[C@H](C)n1nncc1CN3S(C)(=O)=O (single isomer, unassigned) [Compound B163] | ≤ 10
21 | CNC(=O)c1c(-c2ccc(F)cc2)oc2cc3c(cc12)C1CC1CCN3S(C)(=O)=O (stereo not drawn) [Compound B127] | ≤ 10
22 | CNC(=O)c1c(-c2ccccc2F)oc2cc3c(cc12)C(C)CCCN3S(C)(=O)=O (stereo not drawn) [Compound B33] | ≤ 10
23 | CNC(=O)c1c(-c2ccc(F)cc2)oc2cc3c(cc12)C(C)N(CC(F)(F)F)CCN3S(C)(=O)=O (stereo not drawn) [Compound B107] | ≤ 10
24 | CC1CCCN(S(C)(=O)=O)c2cc3oc(-c4ccc(F)cc4)c(-c4ncc[nH]4)c3cc21 (stereo not drawn) [Compound B120] | ≤ 10
